According to patent publication US5254459A, “Nucleotide and amino acid sequences of protein MTP40 of M. tuberculosis and synthetic peptides derived therefrom” (priority 1992, dated 1993):
Not every detail of the peptide structures is certain; ends, links or a residue may be inferred. No end group written: not given here.

Legend:
[1] = tested on: sera from tuberculosis patients; assay: ELISA recognition of synthetic MTP40 peptides by human sera; format: binding
[2] = tested on: Peripheral blood mononuclear cells (PBMC); assay: Lymphocyte proliferation assay; format: cell-based, human; conditions: 5 and 25 μg/ml
[3] = sera from active tuberculosis patients having B(+) sputum, peptide coated at 3 micrograms per well
[4] = active tuberculosis patients having B(+) sputum
[5] = healthy individuals from tubercular households

Substance: INFNCEVWSNVSETISGPRLY-NH2 [S702]
- percentage of sera recognizing the peptide (ELISA) [1, 3]: 28%
- percentage of sera recognizing the peptide (ELISA) ([1]; sera of active tuberculosis patients having B(-) sputum): 52.6%
- percentage of individuals whose T-cells recognized the peptide (lymphocyte proliferation) [2, 4]: 3.4%
- percentage of individuals whose T-cells recognized the peptide (lymphocyte proliferation) [2, 5]: 44%
- percentage of individuals whose T-cells recognized the peptide (lymphocyte proliferation) ([2]; normal donors): 0%

Substance: ASMLGTVTNSPGVPAVPWGA-NH2 [S708]
- percentage of sera recognizing the peptide (ELISA) [1, 3]: 16%
- percentage of individuals whose T-cells recognized the peptide (lymphocyte proliferation) [2, 4]: 11%
- percentage of individuals whose T-cells recognized the peptide (lymphocyte proliferation) [2, 5]: 60%
- percentage of individuals whose T-cells recognized the peptide (lymphocyte proliferation) ([2]; normal donors): 0%

Substance: MLGTGTPNRARINFNC-NH2 [S700, Met-Leu-Gly-Thr-Gly-Thr-Pro-Asn-Arg-Ala-Arg-Ile-Asn-Phe-Asn-Cys]
- percentage of sera recognizing the peptide (ELISA) [1, 3]: 54.8%
- percentage of sera recognizing the peptide (ELISA) ([1]; sera from normal donors): 2.9%
- percentage of individuals whose T-cells recognized the peptide (lymphocyte proliferation) [2, 4]: 3.4%
- percentage of individuals whose T-cells recognized the peptide (lymphocyte proliferation) [2, 5]: 44%
- percentage of individuals whose T-cells recognized the peptide (lymphocyte proliferation) ([2]; normal donors): 0%

Substance: GPRLYGEMTMQGTRKPRPSGP-NH2 [S704]
- percentage of individuals whose T-cells recognized the peptide (lymphocyte proliferation) [2, 4]: 0%
- percentage of individuals whose T-cells recognized the peptide (lymphocyte proliferation) [2, 5]: 40%
- percentage of individuals whose T-cells recognized the peptide (lymphocyte proliferation) ([2]; normal donors): 0%
